Measured values published in the supplement of paper PMC10849652.
Some of the results follow.

Amino acid sequences for entries named in this document (tags omitted). A change or cut given only in a name is not applied to a line headed by its entry.
UniProt Q9NQX7: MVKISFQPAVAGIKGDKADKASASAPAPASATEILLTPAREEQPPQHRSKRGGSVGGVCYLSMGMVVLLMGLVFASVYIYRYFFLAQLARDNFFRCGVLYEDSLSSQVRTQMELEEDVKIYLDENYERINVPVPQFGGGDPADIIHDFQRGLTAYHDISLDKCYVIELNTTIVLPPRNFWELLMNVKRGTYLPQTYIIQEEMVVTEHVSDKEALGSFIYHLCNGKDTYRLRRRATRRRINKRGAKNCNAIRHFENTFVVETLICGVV
UniProt Q06033: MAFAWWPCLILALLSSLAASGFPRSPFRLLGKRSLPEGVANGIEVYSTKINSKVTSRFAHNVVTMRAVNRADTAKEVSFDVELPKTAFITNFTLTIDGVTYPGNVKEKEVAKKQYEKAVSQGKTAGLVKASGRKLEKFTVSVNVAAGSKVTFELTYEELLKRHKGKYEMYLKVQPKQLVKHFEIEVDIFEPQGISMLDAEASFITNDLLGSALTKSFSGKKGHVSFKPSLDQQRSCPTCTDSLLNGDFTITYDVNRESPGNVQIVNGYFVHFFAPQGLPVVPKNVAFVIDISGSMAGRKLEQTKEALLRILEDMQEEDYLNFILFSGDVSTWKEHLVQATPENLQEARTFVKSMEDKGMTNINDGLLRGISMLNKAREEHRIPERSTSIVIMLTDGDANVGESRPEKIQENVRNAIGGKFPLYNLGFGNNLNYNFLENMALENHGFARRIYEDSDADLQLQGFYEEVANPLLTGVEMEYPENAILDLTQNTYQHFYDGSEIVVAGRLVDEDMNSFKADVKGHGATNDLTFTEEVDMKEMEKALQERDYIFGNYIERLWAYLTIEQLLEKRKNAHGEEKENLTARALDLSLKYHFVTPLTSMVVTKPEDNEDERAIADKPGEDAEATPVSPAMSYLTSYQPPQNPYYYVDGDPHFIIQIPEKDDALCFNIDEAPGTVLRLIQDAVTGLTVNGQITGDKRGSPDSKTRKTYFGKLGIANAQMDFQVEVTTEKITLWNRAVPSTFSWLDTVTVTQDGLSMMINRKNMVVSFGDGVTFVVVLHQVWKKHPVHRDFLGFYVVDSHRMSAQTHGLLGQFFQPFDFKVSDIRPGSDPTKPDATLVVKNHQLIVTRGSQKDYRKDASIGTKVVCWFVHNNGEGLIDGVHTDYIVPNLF
UniProt O15554, whole entry, looked up: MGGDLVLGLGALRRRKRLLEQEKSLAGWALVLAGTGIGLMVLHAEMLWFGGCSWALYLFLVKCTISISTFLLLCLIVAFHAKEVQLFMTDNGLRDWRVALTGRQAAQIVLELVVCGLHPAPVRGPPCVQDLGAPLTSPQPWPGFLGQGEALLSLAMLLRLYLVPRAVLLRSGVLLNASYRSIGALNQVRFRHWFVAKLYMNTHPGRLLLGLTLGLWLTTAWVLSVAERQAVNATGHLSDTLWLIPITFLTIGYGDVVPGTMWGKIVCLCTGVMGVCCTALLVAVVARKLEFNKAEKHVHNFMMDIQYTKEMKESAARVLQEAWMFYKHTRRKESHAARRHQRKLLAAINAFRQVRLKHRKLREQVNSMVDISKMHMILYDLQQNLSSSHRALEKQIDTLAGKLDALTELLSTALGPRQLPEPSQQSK
UniProt Q13352: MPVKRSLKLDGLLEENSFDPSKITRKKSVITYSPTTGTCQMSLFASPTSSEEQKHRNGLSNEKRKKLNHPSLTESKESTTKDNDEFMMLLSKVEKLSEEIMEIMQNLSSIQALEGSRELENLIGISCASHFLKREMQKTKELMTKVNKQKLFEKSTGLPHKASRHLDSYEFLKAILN
UniProt P23458: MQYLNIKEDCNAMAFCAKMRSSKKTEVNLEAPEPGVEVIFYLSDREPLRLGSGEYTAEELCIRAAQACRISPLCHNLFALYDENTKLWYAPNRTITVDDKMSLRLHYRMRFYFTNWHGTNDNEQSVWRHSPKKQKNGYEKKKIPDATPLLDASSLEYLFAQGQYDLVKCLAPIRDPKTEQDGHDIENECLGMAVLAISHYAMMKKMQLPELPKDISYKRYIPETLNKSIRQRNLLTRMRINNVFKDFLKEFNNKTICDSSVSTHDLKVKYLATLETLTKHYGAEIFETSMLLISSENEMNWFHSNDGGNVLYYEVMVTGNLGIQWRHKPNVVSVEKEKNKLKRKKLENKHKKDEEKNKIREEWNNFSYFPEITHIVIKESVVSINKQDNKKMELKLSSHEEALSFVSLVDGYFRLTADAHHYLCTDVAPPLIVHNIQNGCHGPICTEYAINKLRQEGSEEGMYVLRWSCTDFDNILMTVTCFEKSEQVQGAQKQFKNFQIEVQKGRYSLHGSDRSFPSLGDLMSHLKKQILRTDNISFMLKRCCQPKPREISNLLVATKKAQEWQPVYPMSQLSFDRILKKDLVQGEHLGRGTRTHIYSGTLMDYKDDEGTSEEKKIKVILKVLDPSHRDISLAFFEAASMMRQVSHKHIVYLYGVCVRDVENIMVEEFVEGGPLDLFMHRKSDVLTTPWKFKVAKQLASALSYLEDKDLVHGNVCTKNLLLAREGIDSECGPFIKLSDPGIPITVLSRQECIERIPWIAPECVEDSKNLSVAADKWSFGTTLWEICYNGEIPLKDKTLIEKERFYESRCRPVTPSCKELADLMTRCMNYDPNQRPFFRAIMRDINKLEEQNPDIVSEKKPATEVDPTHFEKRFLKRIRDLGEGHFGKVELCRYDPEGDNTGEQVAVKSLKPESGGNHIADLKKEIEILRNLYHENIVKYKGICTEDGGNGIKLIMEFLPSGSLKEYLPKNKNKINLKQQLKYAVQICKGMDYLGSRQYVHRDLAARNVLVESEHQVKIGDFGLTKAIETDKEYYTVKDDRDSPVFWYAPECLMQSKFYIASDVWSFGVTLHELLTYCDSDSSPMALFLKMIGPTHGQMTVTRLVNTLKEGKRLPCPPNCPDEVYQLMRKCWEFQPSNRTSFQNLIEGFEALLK
UniProt Q9H9L4: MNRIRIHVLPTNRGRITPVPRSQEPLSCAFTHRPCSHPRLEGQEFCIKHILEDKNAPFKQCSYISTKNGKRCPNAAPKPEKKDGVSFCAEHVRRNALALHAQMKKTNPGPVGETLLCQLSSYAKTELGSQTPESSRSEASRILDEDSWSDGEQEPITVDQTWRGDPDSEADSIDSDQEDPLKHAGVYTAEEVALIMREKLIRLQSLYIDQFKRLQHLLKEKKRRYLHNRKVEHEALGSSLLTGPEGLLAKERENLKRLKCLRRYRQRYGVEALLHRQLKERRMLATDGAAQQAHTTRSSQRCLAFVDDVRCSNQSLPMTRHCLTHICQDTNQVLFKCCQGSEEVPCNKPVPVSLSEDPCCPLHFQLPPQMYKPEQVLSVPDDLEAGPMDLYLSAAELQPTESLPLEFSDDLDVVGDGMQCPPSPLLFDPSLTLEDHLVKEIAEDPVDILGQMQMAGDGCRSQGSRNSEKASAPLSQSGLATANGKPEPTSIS
UniProt Q674X7: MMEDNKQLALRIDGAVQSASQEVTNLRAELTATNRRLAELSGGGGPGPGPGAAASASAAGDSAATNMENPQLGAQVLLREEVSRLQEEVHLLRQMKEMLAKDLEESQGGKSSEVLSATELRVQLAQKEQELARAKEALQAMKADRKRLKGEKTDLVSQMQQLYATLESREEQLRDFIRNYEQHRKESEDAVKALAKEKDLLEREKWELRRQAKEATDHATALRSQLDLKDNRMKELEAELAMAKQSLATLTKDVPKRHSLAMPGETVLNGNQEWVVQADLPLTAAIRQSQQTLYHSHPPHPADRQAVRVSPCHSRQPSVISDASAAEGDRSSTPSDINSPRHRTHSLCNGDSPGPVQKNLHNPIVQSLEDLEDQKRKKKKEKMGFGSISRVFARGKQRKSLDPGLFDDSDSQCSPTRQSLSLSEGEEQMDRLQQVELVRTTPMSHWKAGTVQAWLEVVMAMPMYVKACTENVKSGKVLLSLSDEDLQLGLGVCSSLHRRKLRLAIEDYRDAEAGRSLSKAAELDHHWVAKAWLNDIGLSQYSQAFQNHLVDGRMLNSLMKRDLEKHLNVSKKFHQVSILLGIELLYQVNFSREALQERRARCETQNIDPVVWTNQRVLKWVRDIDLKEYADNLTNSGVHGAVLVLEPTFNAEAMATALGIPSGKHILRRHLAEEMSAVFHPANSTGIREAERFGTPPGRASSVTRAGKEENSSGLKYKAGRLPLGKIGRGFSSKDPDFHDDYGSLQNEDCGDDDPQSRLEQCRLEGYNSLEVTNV
UniProt P0C870: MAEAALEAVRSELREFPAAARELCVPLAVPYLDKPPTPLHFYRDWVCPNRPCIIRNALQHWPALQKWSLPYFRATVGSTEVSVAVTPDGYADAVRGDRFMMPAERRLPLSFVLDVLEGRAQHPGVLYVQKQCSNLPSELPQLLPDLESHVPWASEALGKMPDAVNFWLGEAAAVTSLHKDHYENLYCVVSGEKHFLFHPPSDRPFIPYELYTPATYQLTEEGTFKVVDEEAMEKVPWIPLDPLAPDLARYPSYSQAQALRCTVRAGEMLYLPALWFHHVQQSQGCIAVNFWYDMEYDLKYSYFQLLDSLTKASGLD
UniProt P19823: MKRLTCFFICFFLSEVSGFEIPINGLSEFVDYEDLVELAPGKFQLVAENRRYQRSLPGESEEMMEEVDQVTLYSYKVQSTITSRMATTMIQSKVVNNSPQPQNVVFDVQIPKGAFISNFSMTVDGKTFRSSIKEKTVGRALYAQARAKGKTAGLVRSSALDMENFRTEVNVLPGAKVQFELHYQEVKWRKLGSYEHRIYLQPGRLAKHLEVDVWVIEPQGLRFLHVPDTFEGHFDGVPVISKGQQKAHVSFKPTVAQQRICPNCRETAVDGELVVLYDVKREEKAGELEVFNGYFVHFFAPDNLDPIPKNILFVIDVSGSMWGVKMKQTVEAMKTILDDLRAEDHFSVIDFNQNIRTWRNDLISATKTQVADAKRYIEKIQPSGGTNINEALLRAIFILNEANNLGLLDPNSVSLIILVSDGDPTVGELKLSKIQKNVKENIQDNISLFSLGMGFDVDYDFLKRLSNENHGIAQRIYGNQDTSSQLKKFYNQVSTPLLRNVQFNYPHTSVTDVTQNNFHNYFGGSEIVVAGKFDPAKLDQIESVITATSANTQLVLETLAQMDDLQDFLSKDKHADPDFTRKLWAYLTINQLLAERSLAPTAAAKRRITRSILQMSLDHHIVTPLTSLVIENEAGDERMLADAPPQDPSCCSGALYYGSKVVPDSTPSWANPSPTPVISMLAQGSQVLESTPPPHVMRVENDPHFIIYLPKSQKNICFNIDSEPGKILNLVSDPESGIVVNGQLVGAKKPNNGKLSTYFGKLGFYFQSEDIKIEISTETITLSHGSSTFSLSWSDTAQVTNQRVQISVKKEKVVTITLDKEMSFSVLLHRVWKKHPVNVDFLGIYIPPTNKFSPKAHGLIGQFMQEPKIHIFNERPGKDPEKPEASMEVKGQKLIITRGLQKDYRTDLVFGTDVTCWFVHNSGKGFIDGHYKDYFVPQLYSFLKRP
UniProt Q9H910: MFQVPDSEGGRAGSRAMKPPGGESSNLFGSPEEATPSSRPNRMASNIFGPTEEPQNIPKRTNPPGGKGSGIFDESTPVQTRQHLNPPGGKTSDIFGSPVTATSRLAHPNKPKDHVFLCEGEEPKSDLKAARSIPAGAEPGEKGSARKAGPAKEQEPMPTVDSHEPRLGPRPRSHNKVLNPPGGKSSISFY
UniProt Q96DY2: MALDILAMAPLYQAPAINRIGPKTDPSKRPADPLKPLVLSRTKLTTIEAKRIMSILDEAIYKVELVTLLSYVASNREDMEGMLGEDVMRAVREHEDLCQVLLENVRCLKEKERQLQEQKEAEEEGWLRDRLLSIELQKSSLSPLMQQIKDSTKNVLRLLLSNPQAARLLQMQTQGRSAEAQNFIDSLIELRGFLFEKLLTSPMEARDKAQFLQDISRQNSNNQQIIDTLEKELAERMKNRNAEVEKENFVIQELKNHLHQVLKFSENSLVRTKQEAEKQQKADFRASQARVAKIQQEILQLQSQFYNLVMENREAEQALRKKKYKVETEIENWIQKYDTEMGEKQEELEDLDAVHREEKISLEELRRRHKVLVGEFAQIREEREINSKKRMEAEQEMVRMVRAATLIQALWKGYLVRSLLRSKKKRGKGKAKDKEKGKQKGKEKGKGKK
UniProt Q00978: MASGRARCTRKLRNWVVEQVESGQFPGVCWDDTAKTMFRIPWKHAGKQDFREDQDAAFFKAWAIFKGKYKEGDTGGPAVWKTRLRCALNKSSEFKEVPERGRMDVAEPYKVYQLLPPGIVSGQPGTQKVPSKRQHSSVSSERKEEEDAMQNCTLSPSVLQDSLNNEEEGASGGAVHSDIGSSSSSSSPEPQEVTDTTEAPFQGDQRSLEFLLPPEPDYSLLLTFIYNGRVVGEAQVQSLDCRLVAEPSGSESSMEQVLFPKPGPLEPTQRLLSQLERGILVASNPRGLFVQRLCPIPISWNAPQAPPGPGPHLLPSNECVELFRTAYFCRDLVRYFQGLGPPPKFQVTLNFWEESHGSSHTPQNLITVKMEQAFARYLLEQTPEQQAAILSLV

How the values were obtained:
Test in all cases: log2 fold change, soluble protein after heating vs DMSO (PISA); higher = thermal stabilisation; K562 lysate, 10 uM; active = over 0.2 and 3.5 SD of the protein, either way, in both replicates (recomputed)
erlotinib = compound: C#Cc1cccc(Nc2ncnc3cc(OCCOC)c(OCCOC)cc23)c1 [erlotinib]
Procedure, shortened: (§1)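 Following dounce homogenisation of K562 pellets in PBS pH 7.4 with 1 mM MgCl2, crude extract at 1 mg/mL protein was incubated for 30 min with 10 μM compound. Aliquots were then heated for 3 min over 48°C-58°C and pooled, NP-40 was added to 0.5% at 4°C, and soluble protein was recovered as the supernatant at 21,000xg for 90 min. Channel-sum-equalised TMTpro 16plex LC-MS/MS quantified this protein. Each value, from duplicates, is a log-two fold change in thermal stability relative to solvent controls.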

[1] = compound: C1=CC(=CC=C1C2=NC3=C(N2)C=C(C=C3)C(=O)N)OC4=CC=C(C=C4)Cl
Procedure, shortened: as §1

[2] = compound: C1=CC=C(C=C1)C2=NC(=C(N2)C3=CC=NC=C3)C4=CC(=C(C=C4)Cl)O
Procedure, shortened: as §1

[3] = compound: C1CCN(C1)C(=O)NC2=CC=CC(=C2)NC3=NC=C(C(=N3)NCCC4=CN=CN4)Br
Procedure, shortened: as §1

[4] = compound: C1CN(CCC1(CC2=CC=C(C=C2)Cl)N)C3=NC=NC4=C3C=CN4
Procedure, shortened: as §1

IRAK-1-4 Inhibitor I = compound: C1COCCN1CCN2C3=CC=CC=C3N=C2NC(=O)C4=CC(=CC=C4)[N+](=O)[O-] [IRAK-1-4 Inhibitor I]
Procedure, shortened: as §1

[5] = compound: C1=CC2=NC=CN=C2C=C1/C=C/3\C(=O)NC(=O)S3
Procedure, shortened: as §1

[6] = compound: C/C(=N\NC(=O)C1=CC(=CC=C1)S(=O)(=O)N2CCOCC2)/C3=C(C=CC(=C3)Cl)O
Procedure, shortened: as §1

[7] = compound: C1=CC2=C(C=CC(=C2)/C=C\3/C(=O)NC(=NCC4=CC=CS4)S3)N=C1
Procedure, shortened: as §1

[8] = compound: C1=CC=C2C(=C1)C3=NNC4=CC=CC(=C43)C2=O
Procedure, shortened: as §1

Measured: log2 fold change

JUN (UniProt P05412)
inactive: erlotinib 0.037 | [1] 0.008 | [2] 0.02 | [3] 0.061 | [4] 0.128 | IRAK-1-4 Inhibitor I 0.011

ITPR2 (UniProt Q14571)
inactive: erlotinib 0.058 | [1] 0.163 | [2] -0.051 | IRAK-1-4 Inhibitor I 0.021

ITM2C (UniProt Q9NQX7)
inactive: erlotinib -0.022 | [1] -0.022 | [5] 0.142 | [2] -0.029 | [3] -0.007 | [4] -0.036 | IRAK-1-4 Inhibitor I 0.025

ITIH3 (UniProt Q06033)
inactive: erlotinib -0.113 | [1] 0.076 | [5] -0.033 | [2] 0.031 | [3] 0.05 | [4] 0.022 | IRAK-1-4 Inhibitor I -0.011

IQUB (UniProt Q8NA54)
inactive: [6] -0.218 | [7] -0.064 | [5] -0.267 | [8] 0.224

ISL2 (UniProt Q96A47)
inactive: erlotinib -0.149 | [1] 0.003 | [5] 0.032 | [2] -0.014 | IRAK-1-4 Inhibitor I 0.016

KCNN4 (UniProt O15554)
inactive: erlotinib -0.034 | [1] -0.135 | [2] 0.025 | IRAK-1-4 Inhibitor I -0.219

ITGB3BP isoform 5 (UniProt Q13352)
inactive: [2] -0.089 | IRAK-1-4 Inhibitor I 0.072

KDM2B (UniProt Q8NHM5)
inactive: erlotinib 0.027 | [1] 0.014 | [2] 0 | [3] 0.048 | [4] 0.035 | IRAK-1-4 Inhibitor I 0.004

JOSD1 (UniProt Q15040)
inactive: erlotinib 0.045 | [1] 0.101

JAK1 (UniProt P23458)
inactive: [6] 0.027 | [7] 0.11 | [5] 0.185 | [8] 0.009 | [3] 0.226 | [4] 0.101

ITGB1BP2 (UniProt Q9UKP3)
inactive: [6] 0.017 | [7] -0.001 | [8] 0.039 | [3] -0.117 | [4] 0.09

KANSL2 (UniProt Q9H9L4)
inactive: erlotinib 0.021 | [1] -0.136 | [2] 0.018 | IRAK-1-4 Inhibitor I 0.018

ITPR3 (UniProt Q14573)
inactive: erlotinib 0.165 | [1] 0.16

JMY (UniProt Q8N9B5)
inactive: erlotinib 0.026 | [1] -0.113 | [5] -0.272 | [2] 0.076 | IRAK-1-4 Inhibitor I 0.045

KAZN isoform 3 (UniProt Q674X7)
inactive: erlotinib -0.007 | [1] 0.058 | [5] 0.195 | [2] 0.013 | IRAK-1-4 Inhibitor I -0.228

JMJD7 (UniProt P0C870)
inactive: erlotinib -0.012 | [1] -0.005 | [5] -0.148 | [2] 0.117 | [3] 0.085 | [4] 0.184 | IRAK-1-4 Inhibitor I -0.227

ITPR1 (UniProt Q14643)
inactive: [6] -0.115 | [7] -0.206 | [5] 0.048 | [2] 0.074 | [8] -0.085 | [3] 0.016 | [4] -0.019 | IRAK-1-4 Inhibitor I 0.062

INTU (UniProt Q9ULD6)
inactive: [6] -0.051 | [7] -0.384 | [2] -0.094 | [8] -0.072 | IRAK-1-4 Inhibitor I 0.346

ITPRIP (UniProt Q8IWB1)
inactive: erlotinib 0.218 | [1] -0.16

ITIH2 (UniProt P19823)
inactive: [6] 0.05 | [7] -0.047 | [5] -0.013 | [2] 0 | [8] -0.014 | [3] -0.017 | [4] -0.064 | IRAK-1-4 Inhibitor I 0.015

KAT2A (UniProt Q92830)
inactive: [2] 0.072 | [3] -0.323 | [4] 0.211 | IRAK-1-4 Inhibitor I -0.126

ITPRID2 (UniProt P28290)
inactive: erlotinib -0.066 | [1] 0.022 | [5] 0.031 | [2] -0.04 | [3] -0.117 | [4] 0.079 | IRAK-1-4 Inhibitor I -0.018

IRS2 (UniProt Q9Y4H2)
inactive: erlotinib 0.04 | [1] -0.099 | [5] 0.164 | [2] 0.143 | IRAK-1-4 Inhibitor I -0.009

KANK2 isoform 2 (UniProt Q63ZY3)
inactive: [6] 0.305 | [7] -0.127 | [2] -0.044 | [8] -0.099 | [3] 0.247 | [4] -0.014 | IRAK-1-4 Inhibitor I 0.175

KANSL1 (UniProt Q7Z3B3)
inactive: erlotinib 0.098 | [1] -0.012 | [2] -0.026 | [3] 0.009 | [4] 0.029 | IRAK-1-4 Inhibitor I 0.096

JAG2 (UniProt Q9Y219)
inactive: erlotinib 0.006 | [1] -0.184 | [5] 0.026 | [2] 0.011 | [3] -0.091 | [4] 0.109 | IRAK-1-4 Inhibitor I 0.155

JADE2 (UniProt Q9NQC1)
inactive: [3] -0.096 | [4] 0.192

JPT2 isoform 2 (UniProt Q9H910)
inactive: [5] 0.127

IQCD (UniProt Q96DY2)
inactive: [5] -0.367

KCTD13 (UniProt Q8WZ19)
inactive: erlotinib -0.195 | [1] -0.018 | [5] 0.324 | [2] 0.093 | IRAK-1-4 Inhibitor I -0.01

Copied from the listing (seven entries):
IRS2 (UniProt Q9Y4H2)
inactive: erlotinib 0.04 | [1] -0.099 | [5] 0.164 | [2] 0.143 | IRAK-1-4 Inhibitor I -0.009

KANK2 isoform 2 (UniProt Q63ZY3)
inactive: [6] 0.305 | [7] -0.127 | [2] -0.044 | [8] -0.099 | [3] 0.247 | [4] -0.014 | IRAK-1-4 Inhibitor I 0.175

KANSL1 (UniProt Q7Z3B3)
inactive: erlotinib 0.098 | [1] -0.012 | [2] -0.026 | [3] 0.009 | [4] 0.029 | IRAK-1-4 Inhibitor I 0.096

JAG2 (UniProt Q9Y219)
inactive: erlotinib 0.006 | [1] -0.184 | [5] 0.026 | [2] 0.011 | [3] -0.091 | [4] 0.109 | IRAK-1-4 Inhibitor I 0.155

JADE2 (UniProt Q9NQC1)
inactive: [3] -0.096 | [4] 0.192

JPT2 isoform 2 (UniProt Q9H910)
inactive: [5] 0.127

IQCD (UniProt Q96DY2)
inactive: [5] -0.367

Continuation.

JAK3 (UniProt P52333)
inactive: [6] 0.037 | [7] -0.075 | [5] -0.041 | [8] 0.23

IRF9 (UniProt Q00978)
inactive: erlotinib 0.055 | [1] -0.129 | [2] -0.197 | IRAK-1-4 Inhibitor I 0.167
